Test results: PMC8873433
Results are given in words; binding and its absence hold for the method and conditions named. In cells and extracts the contact can be indirect. Some results given as binding are weak or reduced against the parent protein; the word gives no strength.

The chains behind the UniProt entries cited, without tags or fusion partners.
UniProt Q4V8G6: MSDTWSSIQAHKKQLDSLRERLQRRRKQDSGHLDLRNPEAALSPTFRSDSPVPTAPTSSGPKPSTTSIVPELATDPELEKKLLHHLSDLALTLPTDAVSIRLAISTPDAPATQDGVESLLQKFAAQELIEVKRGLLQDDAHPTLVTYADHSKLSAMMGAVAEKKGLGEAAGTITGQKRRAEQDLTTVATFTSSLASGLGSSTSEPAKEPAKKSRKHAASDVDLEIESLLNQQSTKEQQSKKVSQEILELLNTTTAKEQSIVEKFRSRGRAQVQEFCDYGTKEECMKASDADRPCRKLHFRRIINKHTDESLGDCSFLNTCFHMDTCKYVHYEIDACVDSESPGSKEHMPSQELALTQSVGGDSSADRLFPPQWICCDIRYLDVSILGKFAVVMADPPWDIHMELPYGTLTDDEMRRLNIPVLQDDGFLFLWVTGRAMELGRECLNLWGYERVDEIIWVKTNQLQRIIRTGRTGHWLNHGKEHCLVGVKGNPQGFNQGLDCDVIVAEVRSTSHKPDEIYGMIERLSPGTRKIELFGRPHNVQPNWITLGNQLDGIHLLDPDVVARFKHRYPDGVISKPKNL

Target: Methyltransferase-like 3 (METTL3) (rat (endogenous in RN-sc)) (UniProt Q4V8G6)
Experiment: co-IP; RN-sc cell lysate incubated with anti-METTL3 antibody at 4 °C overnight, protein A/G agarose beads 2 h, western blot for DGCR8; with and without RNase

B1: DGCR8 (protein, UniProt D4A2G4 1-773)
chain: METYESPSPLPHEPTGEAMMENRACPFQVLPHEQSPPPPLQTSSDAEVMDVGSGGDGQSEPPADDPFNFYGASLLSKGSFSKGRLLIDPNCSGHSPRTARHAPAVRKFSPDLKLLKDVKISVSFTESCRSKDRKVLYTGVERSTRPECSQLLSPVCGDVHACPFGGSVGNGVGLGGESTDKKDEENELDQEKRVEYAVLDELEDFTDNLELDEEGTGGFTANAIVQRDRVDEEALNFSYEDDFDNDVDALLEEGLCAPKKRRMEEKYGGDSDHPSDGETSVQPMMTKIKTVLKSRGRPPTEPLPDGWIMTFHNSGVPVYLHRESRVVTWSRPYFLGTGSIRKHDPPLSSIPCLHYKKMKDNEEREQSCDLAPSGEVSPVKPLGRSAELDFPLEEPDSLGGDSGSLDEKDPLGAEAAAGALGQVRAKVEVCKDESVDLEEFRNYLEKRFDFEQVTVKKFRTWAERRQFNREMKRKQAESERPILPANQKLITLSVQDAPTKKEFVINPNGKSEVCILHEYMQRVLKVRPVYNFFECENPSEPFGASVTIDGVTYGSGTASSKKLAKNKAARATLEILIPDFVKQTSEEKPKDSEELEYFNHISIEDSRVYELTSKAGLLSPYQILHECLKRNHGMGDTSIKFEVVPGKNQKSEYVMACGKHTVRGWCKNKRVGKQLASQKILQLLHPHVKNWGSLLRMYGRESSKMVKQETSDKSVIELQQYAKKNRPNLHILSKLQEEMKRLAAEREETRKKPKMSIVASAQPGGEPLCTVDV
With B1 the binding was “binds”.
